PubChem BioAssay AID1053208 | Peter MacCallum Cancer Centre – 2014

Test: 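Genes whose silencing cuts survival of bone tumour cells only with doxorubicin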 (primary screen)
System: mouse osteosarcoma cells, early-passage culture from an engineered mouse model of fibroblastic bone tumour
Reagent: siRNA pool against mouse genes, 40 nM
Time to read-out: about 120 h (48 h before drug, then 72 h with drug)
Challenge: doxorubicin 100 nM for 72 h, roughly 30-40% inhibitory dose
Detection: 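Luminescent ATP signal taken as viability with or without 100 nM doxorubicin for 72 h; mean of two wells set against non-targeting siRNA and turned into robust z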
Scale: viability z-score with doxorubicin and doxorubicin viability vs non-targeting: higher = more viable cells under doxorubicin; viability z-score without drug: higher = more viable cells with knock-down alone; z-score of drug to no-drug ratio: higher = less drug sensitisation by knock-down
Hit rule: 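a pool counts as active when its viability z-score with doxorubicin is -2 or below and its z-score without drug lies between -2 and 2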
Shown is one part, drawn at random, of about 17,000 deposited reagents. Of all reagents, 788 (4.7%) were called active. 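Calls rest on z-score classes alone; an extra cut-off of viability at most 70% of control was not applied to them.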 A number with no mark means an inactive call. The numbers tell different reagents against one gene apart. Reagent sequences are not shown.

The opening 4 records, to show the layout:
target gene	pool no.	combined z-score class	viability z-score with doxorubicin	viability z-score without drug	z-score of drug to no-drug ratio	doxorubicin viability vs non-targeting
BC027092	1	no change with or without drug	1.46	0.34	1.35	1.07
A630052C17Rik	1	no change with or without drug	0.56	1.35	-0.22	0.99
Tnk2	1	no change with or without drug	0.22	0.34	0.11	0.96
Krt15	1	no change with or without drug	-0.56	-1.18	0.34	0.89

Main list, repeating the preview:
target gene	pool no.	combined z-score class	viability z-score with doxorubicin	viability z-score without drug	z-score of drug to no-drug ratio	doxorubicin viability vs non-targeting
BC027092	1	no change with or without drug	1.46	0.34	1.35	1.07
A630052C17Rik	1	no change with or without drug	0.56	1.35	-0.22	0.99
Tnk2	1	no change with or without drug	0.22	0.34	0.11	0.96
Krt15	1	no change with or without drug	-0.56	-1.18	0.34	0.89
Or4c111	1	no change with or without drug	-0.45	-0.17	-0.22	0.9
Tc2n	1	no change with or without drug	-1.57	-0.51	-1.24	0.8
Tigar	1	low cell count with doxorubicin only (active)	-2.02	-1.18	-1.35	0.76
Gsc2	1	no change with or without drug	-0.9	-0.34	-0.67	0.86
Det1	1	no change with or without drug	0.9	1.01	0.34	1.02
Tas2r107	1	high cell count without drug only	-1.8	2.19	-2.92	0.78
Nhlh1	1	no change with or without drug	1.35	0.51	1.12	1.06
Hmx3	1	no change with or without drug	0.34	0.84	-0.11	0.97
Aldh1a1	1	no change with or without drug	-0.22	0.51	-0.45	0.92
Ceacam14	1	no change with or without drug	-1.8	-1.18	-1.01	0.78
Coro7	1	no change with or without drug	-1.12	0.17	-1.12	0.84
Vmn1r18	1	no change with or without drug	-0.45	0.51	-0.67	0.9
Itgae	1	no change with or without drug	-0.22	-0.34	0.11	0.92
Tax1bp3	1	no change with or without drug	0.11	-0.34	0.45	0.95
Csta2	1	no change with or without drug	0.9	0	1.01	1.02
Jkamp	1	high cell count without drug only	-0.22	2.19	-1.46	0.92
Trim61	1	no change with or without drug	-1.12	-1.18	-0.34	0.84
Adcy7	1	no change with or without drug	0.45	-0.34	0.79	0.98
Scn8a	1	no change with or without drug	0	0.51	-0.22	0.94
Hhipl2	1	low cell count with doxorubicin only (active)	-3.04	0.67	-3.37	0.67
Deup1	1	no change with or without drug	0.67	-0.17	0.9	1
Sema3a	1	no change with or without drug	0.22	0.34	0.11	0.96
Nkx3-1	1	no change with or without drug	1.57	-0.51	2.14	1.08
Ubl4b	1	high cell count without drug only	-0.11	2.53	-1.46	0.93
Rab3c	1	no change with or without drug	0.79	0	0.9	1.01
Htr1d	1	no change with or without drug	0.9	-0.34	1.35	1.02
Tarm1	1	no change with or without drug	-0.22	0.51	-0.45	0.92
Tcstv3	1	low cell count with doxorubicin only (active)	-3.15	-0.84	-2.81	0.66
Or5ae2	1	no change with or without drug	1.01	-0.51	1.57	1.03
Htr2b	1	high cell count with doxorubicin only	2.02	0.17	2.14	1.12
Or5p58	1	no change with or without drug	-1.46	0	-1.46	0.81
Myo1c	1	no change with or without drug	0.79	0.17	0.79	1.01
Adamts2	1	no change with or without drug	0	0.51	-0.22	0.94
Prelid3b	1	no change with or without drug	-1.01	1.69	-1.91	0.85
Ube2v1	1	high cell count with doxorubicin only	2.02	1.85	0.9	1.12
Lrrc25	1	low cell count with and without drug	-2.36	-2.19	-1.01	0.73
Zfyve16	1	no change with or without drug	-0.34	0.17	-0.34	0.91
Gnb5	1	no change with or without drug	0.22	-0.34	0.56	0.96
Mrps14	1	no change with or without drug	0.9	-1.85	2.59	1.02
Cd99l2	1	no change with or without drug	-0.67	-1.35	0.34	0.88
Lars2	1	no change with or without drug	0	0.34	-0.11	0.94
Stk39	1	no change with or without drug	-0.11	-1.18	0.9	0.93
Or52e5	1	no change with or without drug	-0.22	-0.17	0	0.92
Syngr4	1	no change with or without drug	-1.57	0.34	-1.8	0.8
Or6c205	1	no change with or without drug	-0.9	-0.84	-0.22	0.86
Or6c205	2	high cell count without drug only	1.57	2.36	0.11	1.08
Lsm4	1	no change with or without drug	-0.9	-1.85	0.45	0.86
Fam135a	1	no change with or without drug	0.34	0.17	0.34	0.97
Sptbn1	1	high cell count without drug only	-1.01	3.71	-2.81	0.85
Kri1	1	no change with or without drug	0	-0.84	0.67	0.94
Mfsd6l	1	no change with or without drug	0.22	0.17	0.22	0.96
Snca	1	no change with or without drug	-0.67	-0.84	0	0.88
Gpsm1	1	no change with or without drug	0.9	1.52	0	1.02
Map3k4	1	no change with or without drug	1.12	-0.17	1.46	1.04
Dtl	1	low cell count with and without drug	-3.37	-2.53	-2.02	0.64
Ptpmt1	1	no change with or without drug	0	0.17	0	0.94
Prdm13	1	high cell count without drug only	1.8	2.36	0.34	1.1
Zdhhc4	1	no change with or without drug	-1.35	-0.51	-1.01	0.82
Atoh1	1	no change with or without drug	1.12	1.18	0.45	1.04
